Experimental data taken from paper PMC12121293.
No constants are given. Whether binding was seen depends on the method and setting. Binding seen in cells or lysates may run through a third protein. Some binding calls cover weakened binding; strength is not graded here. Sequences can lack the tags named with a protein.

Biological target: T1, Glucose transporter 3 (Glut3) (rat (endogenous in primary Sprague Dawley rat neurons)) (UniProt Q07647)
T1 sequence: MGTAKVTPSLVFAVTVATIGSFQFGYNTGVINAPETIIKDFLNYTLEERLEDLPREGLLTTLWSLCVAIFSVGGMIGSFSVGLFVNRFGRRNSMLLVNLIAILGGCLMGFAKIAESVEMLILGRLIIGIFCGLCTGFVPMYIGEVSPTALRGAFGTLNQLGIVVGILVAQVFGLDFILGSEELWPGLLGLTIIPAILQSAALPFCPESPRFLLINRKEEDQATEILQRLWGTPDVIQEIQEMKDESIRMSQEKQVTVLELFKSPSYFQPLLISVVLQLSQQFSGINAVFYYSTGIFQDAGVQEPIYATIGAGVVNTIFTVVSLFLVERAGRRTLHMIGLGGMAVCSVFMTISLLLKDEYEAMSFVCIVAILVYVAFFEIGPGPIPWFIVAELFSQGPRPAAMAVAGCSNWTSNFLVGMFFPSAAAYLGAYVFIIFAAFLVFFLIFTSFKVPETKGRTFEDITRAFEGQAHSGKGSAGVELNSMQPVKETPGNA
Experiment: co-IP; total natural proteins of primary rat neurons (Ctrl, Mg2+-free for 3 h, LV NC and LV Rab11a OE groups exposed to Mg2+-free fluid); precipitated with anti-Glut3 antibody overnight at 4 °C; blotted with anti-Glut3 and anti-Rab11A

B1: Rab11a (protein, UniProt P62494 1-216)
chain: MGTRDDEYDYLFKVVLIGDSGVGKSNLLSRFTRNEFNLESKSTIGVEFATRSIQVDGKTIKAQIWDTAGQERYRAITSAYYRGAVGALLVYDIAKHLTYENVERWLKELRDHADSNIVIMLVGNKSDLRHLRAVPTDEARAFAEKNGLSFIETSALDSTNVEAAFQTILTEIYRIVSQKQMSDRRENDMSPSNNVVPIHVPPTTENKPKVQCCQNI
- binding: binds

B2: Rab11a overexpressed by lentivirus (OE group) (protein, UniProt P62494 1-216)
chain: B1 chain
- binding: binds
